Source: article PMC4561369
No constants are given. Whether binding was seen depends on the method and setting. Binding seen in cells or lysates may run through a third protein. Here binding means that the protein was enriched with, or labelled near, the bait; the list need not be complete.

Protein sequences, listed by entry. Tags and fused reporters are not part of them. Lines headed by an entry give the natural chain unless they say otherwise; changes in a name come on top. Residues count along the entry.
UniProt Q9D0F6: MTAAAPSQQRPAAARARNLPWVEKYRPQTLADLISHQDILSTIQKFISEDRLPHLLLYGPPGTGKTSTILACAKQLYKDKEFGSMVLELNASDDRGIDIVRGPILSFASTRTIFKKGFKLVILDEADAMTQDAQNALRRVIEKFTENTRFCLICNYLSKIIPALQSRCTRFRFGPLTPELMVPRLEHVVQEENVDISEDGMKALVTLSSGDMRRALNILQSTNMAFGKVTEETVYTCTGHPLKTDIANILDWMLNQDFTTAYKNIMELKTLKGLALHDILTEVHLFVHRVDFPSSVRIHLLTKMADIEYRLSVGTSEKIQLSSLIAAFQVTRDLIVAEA
UniProt P08113, residues 22-802: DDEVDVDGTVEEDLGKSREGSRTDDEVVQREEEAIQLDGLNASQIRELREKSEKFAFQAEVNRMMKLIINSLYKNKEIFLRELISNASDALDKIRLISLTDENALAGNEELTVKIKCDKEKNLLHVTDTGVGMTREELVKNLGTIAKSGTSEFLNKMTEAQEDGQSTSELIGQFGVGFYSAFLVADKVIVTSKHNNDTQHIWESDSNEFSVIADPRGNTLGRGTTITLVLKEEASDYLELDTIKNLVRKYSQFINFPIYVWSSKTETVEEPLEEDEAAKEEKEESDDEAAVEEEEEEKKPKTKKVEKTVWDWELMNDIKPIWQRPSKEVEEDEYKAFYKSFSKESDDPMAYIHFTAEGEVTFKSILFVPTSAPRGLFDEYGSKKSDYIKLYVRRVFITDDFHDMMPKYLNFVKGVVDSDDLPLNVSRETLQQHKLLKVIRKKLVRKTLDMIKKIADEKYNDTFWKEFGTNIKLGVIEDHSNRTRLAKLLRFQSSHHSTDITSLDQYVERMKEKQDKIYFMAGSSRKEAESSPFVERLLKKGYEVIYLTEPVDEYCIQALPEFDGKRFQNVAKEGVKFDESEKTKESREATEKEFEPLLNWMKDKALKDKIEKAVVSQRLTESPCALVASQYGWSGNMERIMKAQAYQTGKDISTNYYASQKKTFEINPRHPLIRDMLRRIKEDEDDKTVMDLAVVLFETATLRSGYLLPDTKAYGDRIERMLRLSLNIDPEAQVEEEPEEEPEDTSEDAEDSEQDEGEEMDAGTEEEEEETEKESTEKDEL
UniProt B2RQC6: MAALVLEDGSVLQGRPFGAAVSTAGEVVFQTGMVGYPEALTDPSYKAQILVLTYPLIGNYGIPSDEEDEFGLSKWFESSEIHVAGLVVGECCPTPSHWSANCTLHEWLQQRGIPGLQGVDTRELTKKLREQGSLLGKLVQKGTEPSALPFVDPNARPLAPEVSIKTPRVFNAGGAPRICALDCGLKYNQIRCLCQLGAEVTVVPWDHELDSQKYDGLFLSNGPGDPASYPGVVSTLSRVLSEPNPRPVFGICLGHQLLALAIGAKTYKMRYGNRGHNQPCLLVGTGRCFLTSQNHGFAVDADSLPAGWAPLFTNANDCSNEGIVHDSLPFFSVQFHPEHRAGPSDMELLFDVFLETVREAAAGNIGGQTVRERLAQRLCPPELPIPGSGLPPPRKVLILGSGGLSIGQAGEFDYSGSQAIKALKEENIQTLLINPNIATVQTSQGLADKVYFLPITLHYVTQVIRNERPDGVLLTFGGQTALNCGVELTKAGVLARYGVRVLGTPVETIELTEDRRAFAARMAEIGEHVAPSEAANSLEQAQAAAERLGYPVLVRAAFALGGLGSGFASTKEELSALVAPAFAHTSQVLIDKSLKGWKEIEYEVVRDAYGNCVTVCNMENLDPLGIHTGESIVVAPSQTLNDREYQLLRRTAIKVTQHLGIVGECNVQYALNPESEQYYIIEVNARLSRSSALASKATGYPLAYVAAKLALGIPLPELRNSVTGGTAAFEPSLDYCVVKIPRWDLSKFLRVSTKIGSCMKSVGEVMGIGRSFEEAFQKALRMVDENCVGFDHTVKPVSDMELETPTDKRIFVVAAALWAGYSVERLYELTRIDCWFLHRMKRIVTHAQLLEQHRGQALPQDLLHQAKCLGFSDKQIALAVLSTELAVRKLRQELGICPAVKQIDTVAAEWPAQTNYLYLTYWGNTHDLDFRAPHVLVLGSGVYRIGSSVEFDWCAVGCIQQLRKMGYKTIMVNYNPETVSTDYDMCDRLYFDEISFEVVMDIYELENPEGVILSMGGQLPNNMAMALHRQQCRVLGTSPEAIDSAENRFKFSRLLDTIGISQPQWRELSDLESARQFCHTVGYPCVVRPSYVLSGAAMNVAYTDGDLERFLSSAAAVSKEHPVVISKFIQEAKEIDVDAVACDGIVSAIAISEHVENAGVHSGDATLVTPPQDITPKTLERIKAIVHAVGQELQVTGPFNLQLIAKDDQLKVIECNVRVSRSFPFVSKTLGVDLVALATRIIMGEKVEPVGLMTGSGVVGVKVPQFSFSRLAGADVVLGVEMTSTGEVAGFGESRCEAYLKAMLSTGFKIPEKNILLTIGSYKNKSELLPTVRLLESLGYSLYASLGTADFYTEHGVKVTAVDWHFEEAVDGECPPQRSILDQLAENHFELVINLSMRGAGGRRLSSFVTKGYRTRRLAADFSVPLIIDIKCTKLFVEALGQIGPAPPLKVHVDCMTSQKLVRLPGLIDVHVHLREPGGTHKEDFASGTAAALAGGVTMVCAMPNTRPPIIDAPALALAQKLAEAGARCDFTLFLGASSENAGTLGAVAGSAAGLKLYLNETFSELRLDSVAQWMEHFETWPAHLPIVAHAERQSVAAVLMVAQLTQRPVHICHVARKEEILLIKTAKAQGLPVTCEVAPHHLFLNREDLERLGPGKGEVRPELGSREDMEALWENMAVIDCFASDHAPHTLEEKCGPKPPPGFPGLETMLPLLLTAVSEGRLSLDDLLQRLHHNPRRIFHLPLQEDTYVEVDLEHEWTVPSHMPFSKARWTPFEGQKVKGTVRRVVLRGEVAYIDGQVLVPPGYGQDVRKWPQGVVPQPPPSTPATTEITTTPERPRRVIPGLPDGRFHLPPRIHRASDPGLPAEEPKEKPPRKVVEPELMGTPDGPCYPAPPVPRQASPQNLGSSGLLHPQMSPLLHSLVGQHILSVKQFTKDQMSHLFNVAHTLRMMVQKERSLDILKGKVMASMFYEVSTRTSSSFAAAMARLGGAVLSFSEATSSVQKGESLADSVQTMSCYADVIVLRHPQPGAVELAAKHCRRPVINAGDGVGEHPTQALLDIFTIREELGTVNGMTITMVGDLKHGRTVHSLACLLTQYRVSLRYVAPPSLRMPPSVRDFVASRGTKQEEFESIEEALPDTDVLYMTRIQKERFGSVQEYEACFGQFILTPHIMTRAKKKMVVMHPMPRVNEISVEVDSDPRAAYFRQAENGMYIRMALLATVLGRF
UniProt Q9JKF1: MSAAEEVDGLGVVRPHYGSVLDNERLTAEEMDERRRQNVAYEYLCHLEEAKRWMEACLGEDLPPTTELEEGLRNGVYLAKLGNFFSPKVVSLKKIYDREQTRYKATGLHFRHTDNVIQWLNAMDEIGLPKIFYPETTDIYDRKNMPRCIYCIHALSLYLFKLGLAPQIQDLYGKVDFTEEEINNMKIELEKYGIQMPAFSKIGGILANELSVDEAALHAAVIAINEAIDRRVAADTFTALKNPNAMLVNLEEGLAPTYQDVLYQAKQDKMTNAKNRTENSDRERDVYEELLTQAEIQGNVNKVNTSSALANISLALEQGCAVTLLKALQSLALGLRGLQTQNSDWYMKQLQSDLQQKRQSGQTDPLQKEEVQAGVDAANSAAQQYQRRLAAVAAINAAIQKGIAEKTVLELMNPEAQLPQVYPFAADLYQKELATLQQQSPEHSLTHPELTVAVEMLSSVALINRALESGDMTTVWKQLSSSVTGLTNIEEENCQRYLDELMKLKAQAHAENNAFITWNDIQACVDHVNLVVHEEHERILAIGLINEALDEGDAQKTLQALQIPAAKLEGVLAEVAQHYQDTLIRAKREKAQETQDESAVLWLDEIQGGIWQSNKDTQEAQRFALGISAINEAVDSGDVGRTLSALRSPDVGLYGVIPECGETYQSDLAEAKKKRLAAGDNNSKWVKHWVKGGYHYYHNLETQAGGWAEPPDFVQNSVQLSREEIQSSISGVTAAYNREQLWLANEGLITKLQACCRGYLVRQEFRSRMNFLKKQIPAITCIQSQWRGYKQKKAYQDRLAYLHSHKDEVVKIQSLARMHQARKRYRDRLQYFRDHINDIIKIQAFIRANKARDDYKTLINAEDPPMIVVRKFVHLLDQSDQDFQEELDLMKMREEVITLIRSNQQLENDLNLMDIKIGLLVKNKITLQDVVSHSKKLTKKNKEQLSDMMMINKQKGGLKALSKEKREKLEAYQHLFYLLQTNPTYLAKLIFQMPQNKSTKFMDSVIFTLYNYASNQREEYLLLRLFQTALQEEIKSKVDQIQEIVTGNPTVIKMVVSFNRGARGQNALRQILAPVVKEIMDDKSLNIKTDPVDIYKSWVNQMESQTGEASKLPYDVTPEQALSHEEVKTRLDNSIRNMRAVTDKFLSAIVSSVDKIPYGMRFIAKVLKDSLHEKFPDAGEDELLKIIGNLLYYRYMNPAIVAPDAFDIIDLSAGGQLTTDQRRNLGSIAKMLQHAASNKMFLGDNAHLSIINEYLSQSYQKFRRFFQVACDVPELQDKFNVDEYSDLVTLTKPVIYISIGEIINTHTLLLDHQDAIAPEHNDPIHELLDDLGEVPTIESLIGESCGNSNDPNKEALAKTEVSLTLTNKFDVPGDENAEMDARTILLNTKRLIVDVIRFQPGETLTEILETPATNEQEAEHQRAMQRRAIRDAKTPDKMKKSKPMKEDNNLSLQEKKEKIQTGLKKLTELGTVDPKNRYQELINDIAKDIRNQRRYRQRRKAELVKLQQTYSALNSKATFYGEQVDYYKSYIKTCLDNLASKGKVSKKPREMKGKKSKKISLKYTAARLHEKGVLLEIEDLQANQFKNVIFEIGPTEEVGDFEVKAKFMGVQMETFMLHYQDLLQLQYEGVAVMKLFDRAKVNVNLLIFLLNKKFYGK
UniProt P62962: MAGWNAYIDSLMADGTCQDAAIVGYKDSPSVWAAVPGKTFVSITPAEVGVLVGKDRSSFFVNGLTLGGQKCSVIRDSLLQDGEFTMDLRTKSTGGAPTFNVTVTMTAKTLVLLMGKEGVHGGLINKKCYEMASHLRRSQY
UniProt Q6PHQ9: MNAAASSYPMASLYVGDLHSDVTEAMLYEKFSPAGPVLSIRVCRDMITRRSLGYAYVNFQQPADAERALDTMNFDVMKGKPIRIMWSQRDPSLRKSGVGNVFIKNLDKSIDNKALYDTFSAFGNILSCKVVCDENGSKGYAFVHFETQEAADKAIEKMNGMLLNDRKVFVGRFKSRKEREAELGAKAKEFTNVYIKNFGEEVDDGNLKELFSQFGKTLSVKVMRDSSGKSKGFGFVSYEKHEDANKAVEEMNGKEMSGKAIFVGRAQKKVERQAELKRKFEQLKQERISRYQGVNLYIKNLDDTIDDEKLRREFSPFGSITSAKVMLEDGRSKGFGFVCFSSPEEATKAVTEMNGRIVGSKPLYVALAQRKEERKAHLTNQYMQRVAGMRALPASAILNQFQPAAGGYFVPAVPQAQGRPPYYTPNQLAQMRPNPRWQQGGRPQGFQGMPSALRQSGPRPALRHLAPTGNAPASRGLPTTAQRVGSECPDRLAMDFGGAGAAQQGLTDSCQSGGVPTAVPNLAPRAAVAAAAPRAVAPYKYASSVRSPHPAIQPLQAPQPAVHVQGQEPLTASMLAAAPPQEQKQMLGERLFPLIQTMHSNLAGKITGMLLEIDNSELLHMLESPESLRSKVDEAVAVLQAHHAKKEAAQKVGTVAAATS
UniProt P10605: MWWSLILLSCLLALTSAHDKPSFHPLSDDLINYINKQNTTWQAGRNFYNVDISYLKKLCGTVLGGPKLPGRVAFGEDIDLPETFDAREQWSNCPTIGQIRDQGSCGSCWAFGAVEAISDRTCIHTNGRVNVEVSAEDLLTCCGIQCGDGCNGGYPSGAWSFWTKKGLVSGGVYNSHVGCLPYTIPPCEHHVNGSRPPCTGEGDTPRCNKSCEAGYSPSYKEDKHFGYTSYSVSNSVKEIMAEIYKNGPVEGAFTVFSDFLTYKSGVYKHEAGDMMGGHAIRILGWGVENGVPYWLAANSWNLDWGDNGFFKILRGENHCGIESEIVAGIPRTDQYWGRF
UniProt P62334: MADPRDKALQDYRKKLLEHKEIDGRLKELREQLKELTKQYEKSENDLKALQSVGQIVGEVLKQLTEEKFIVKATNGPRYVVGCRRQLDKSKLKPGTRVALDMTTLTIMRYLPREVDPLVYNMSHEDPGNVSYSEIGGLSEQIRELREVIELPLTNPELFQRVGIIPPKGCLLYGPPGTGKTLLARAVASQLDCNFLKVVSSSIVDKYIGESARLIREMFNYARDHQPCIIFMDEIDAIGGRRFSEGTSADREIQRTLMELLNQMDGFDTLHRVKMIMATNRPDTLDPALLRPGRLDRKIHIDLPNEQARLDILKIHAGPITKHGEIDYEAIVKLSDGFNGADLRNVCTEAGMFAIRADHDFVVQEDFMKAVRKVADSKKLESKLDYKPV

biological target: mutant p53 (mutp53) R172H protein of Trp53^R172H/R172H knock-in mice (mouse (endogenous in tissues of Trp53^R172H/R172H mice)) (UniProt P02340); assay: affinity purification with mass spectrometry; lysates of thymic lymphomas of Trp53^R172H/R172H mice (n = 3); IP with anti-p53 (FL393) beads, eluted with 0.1 M glycine, bands of a 4–15% SDS gel analysed by LC-MS/MS; normal thymus as control

binding | Molecule
binds | Hspd1 (from UniProt P63038 27-573)
binds | Stip1 (from UniProt Q60864 1-543)
binds | Eprs (from UniProt Q8CGC7 1-1512)
binds | Rfc5 (from UniProt Q9D0F6 1-339)
binds | Bat3 (from UniProt Q9Z1R2 1-1154)
binds | Hsp90b1 (from UniProt P08113 22-802)
binds | Atp5a1 (from UniProt Q03265 44-553)
binds | Hspa2 (from UniProt P17156 1-633)
binds | Hadha (from UniProt Q8BMS1 37-763)
binds | Cad (from UniProt B2RQC6 1-2225)
binds | Atp5b (from UniProt P56480 47-529)
binds | Fam49b (protein, UniProt Q921M7 1-324) MGNLLKVLTCTDLEQGPNFFLDFENAQPTESEKEIYNQVNVVLKDAEGILEDLQSYRGAGHEIREAIQHPADEKLQEKAWGAVVPLVGKLKKFYEFSQRLEAALRGLLGALTSTPYSPTQHLEREQALAKQFAEILHFTLRFDELKMTNPAIQNDFSYYRRTLSRMRINNVPAEGENEVNNELANRMSLFYAEATPMLKTLSDATTKFVSENKNLPIENTTDCLSTMASVCRVMLETPEYRSRFTNEETVSFCLRVMVGVIILYDHVHPVGAFAKTSKIDMKGCIKVLKDQPPNSVEGLLNALRYTTKHLNDETTSKQIRSMLQ
binds | Ifi47 (protein, UniProt Q61635 1-420) MDQFISAFLKGASENSFQQLAKEFLPQYSALISKAGGMLSPETLTGIHKALQEGNLSDVMIQIQKAISAAENAILEVAVIGQSGTGKSSFINALRGLGHEADESADVGTVETTMCKTPYQHPKYPKVIFWDLPGTGTPNFHADAYLDQVGFANYDFFIIISSSRFSLNDALLAQKIKDAGKKFYFVRTKVDSDLYNEQKAKPIAFKKEKVLQQIRDYCVTNLIKTGVTEPCIFLISNLDLGAFDFPKLEETLLKELPGHKRHMFALLLPNISDASIELKKHFLREKIWLEALKSAAVSFIPFMTFFKGFDLPEQEQCLKDYRSYFGLDDQSIKEIAEKLGAPLADIKGELKCLDFWSLVKDNSIIAQATSAAEAFCAVKGGPESSAFQALKVYYRRTQFLNIVVDDAKHLLRKIETVNVA
binds | Khsrp (protein, UniProt Q3U0V1 1-748) MSDYNTGGPPPGPPPPAGGGGGAAGAGGGPPPGPPGAGDRGGGGPGGGGPGGGGASGGPSQPPGGGGPGIRKDAFADAVQRARQIAAKIGGDAATTVNNNTPDFGFGGQKRQLEDGDQPDSKKLASQGDSIGSQLGPIHPPPRTSMTEEYRVPDGMVGLIIGRGGEQINKIQQDSGCKVQISPDSGGLPERSVSLTGAPESVQKAKMMLDDIVSRGRGGPPGQFHDNANGGQNGTVQEIMIPAGKAGLVIGKGGETIKQLQERAGVKMILIQDGSQNTNVDKPLRIIGDPYKVQQACEMVMDILRERDQGGFGDRNEYGSRVGGGIDVPVPRHSVGVVIGRSGEMIKKIQNDAGVRIQFKQDDGTGPEKIAHIMGPPDRCEHAARIINDLLQSLRSGPPGPPGAPGMPPGGRGRGRGQGNWGPPGGEMTFSIPTHKCGLVIGRGGENVKAINQQTGAFVEISRQLPPNGDPNFKLFVIRGSPQQIDHAKQLIEEKIEGPLCPVGPGPGGPGPAGPMGPFNPGPFNQGPPGAPPHAGGPPPHQYPPQGWGNTYPQWQPPAPHDPNKAAAAATDPNAAWAAYYSHYYQQPPGPVPGPAPAPAAPPAQGEPPQPPPTGQSDYTKAWEEYYKKIGQQPQQPGAPPQQDYTKAWEEYYKKQAQVATGGGPGAPPGSQPDYSAAWAEYYRQQAAYYGQTPGPGGPQPPPTQQGQQQASGNCHPPPPPFSFQPPATVHPALVGSAGNPFPCGVCP
binds | Cse1l (protein, UniProt Q9ERK4 1-971) MELSDANLQTLTEYLKKTLDPDPAIRRPAEKFLESVEGNQNYPLLLLTLLEKSQDNVIKVCASVTFKNYIKRNWRIVEDEPNKICEADRVAIKANIVHLMLSSPEQIQKQLSDAISIIGREDFPQKWPDLLTEMVNRFQSGDFHVINGVLRTAHSLFKRYRHEFKSNELWTEIKLVLDAFALPLTNLFKATIELCSTHANDASALRILFSSLILISKLFYSLNFQDLPEFFEDNMETWMNNFHTLLTLDNKLLQTDDEEEAGLLELLKSQICDNAALYAQKYDEEFQRYLPRFVTAIWNLLVTTGREVKYDLLVSNAIQFLASVCERPHYKNLFEDQNTLTSICEKVIVPNMEFRAADEEAFEDNSEEYIRRDLEGSDIDTRRRAACDLVRGLCKFFEGPVTGIFSGYVNSMLQEYAKNPSVNWKHKDAAIYLVTSLASKAQTQKHGITQANELVNLTEFFVNHILPDLKSNNVNEFPVLKADGIKYIMIFRNQVPKEHLLVSIPLLISHLEAESIVVHTYAAHALERLFTMRGSNNTTLFTAAEIAPFVEILLTNLFKALTLPGSSENEYIMKAIMRSFSLLQEAIIPYIPTLITQLTQKLLAVSKNPSKPHFNHYMFEAICLSIRITCKANPAAVVNFEEALFLVFTEILQNDVQEFIPYVFQVMSLLLETHKNDIPSSYMALFPHLLQPVLWERTGNIPALVRLLQAFLERGSSTIATAAADKIPGLLGVFQKLIASKANDHQGFYLLNSIIEHMPPESVDQYRKQIFILLFQRLQNSKTTKFIKSFLVFINLYCIKYGALALQEIFDGIQPKMFGMVLEKIIIPEIQKVSGNVEKKICAVGITKLLTECPPMMDTEYTKLWTPLLQSLIGLFELPEDDSIPDEEHFIDIEDTPGYQTAFSQLAFAGKKEHDPVGQMVNNPKIHLAQSLHKLSTACPGRVPSMVSTSLNAEALQYLQGYLQAASVTLL

More lines, now with the values behind:

Molecule | binding
Iqgap1 (from UniProt Q9JKF1 1-1657) | binds
Ubr5 (from UniProt Q80TP3 1-2792) | binds
Pfn1 (from UniProt P62962 1-140) | binds
Hsph1 (from UniProt Q61699 1-858) | binds
Pabpc4 (from UniProt Q6PHQ9 1-660) | binds
Pcbp1 (from UniProt P60335 1-356) | binds
Pcbp2 (from UniProt Q61990 1-362) | binds
Ctsb (from UniProt P10605) | binds
Psmc6 (from UniProt P62334 1-389) | binds
Dnajb4 (from UniProt Q9D832 1-337) | binds
Sar1a (from UniProt P36536 1-198) | binds
Hspbp1 (protein, UniProt Q99P31 1-357) MADKGSGGSRLPLALPPASQGCSSGGSGSSAGGSGNPRPPRNLQGLLQMAITAGSQEPDPPPEPMSEERRQWLQEAMSAAFRGQREEVEQMKNCLRVLSQATPAMAGEAELATDQQEREGALELLADLCENMDNAADFCQLSGMHLLVGRYLEAGAAGLRWRAAQLIGTCSQNVAAIQEQVLGLGALRKLLRLLDRDSCDTVRVKALFAISCLVREQEAGLLQFLRLDGFSVLMRAMQQQVQKLKVKSAFLLQNLLVGHPEHKGTLCSMGMVQQLVALVRTEHSPFHEHVLGALCSLVTDFPQGVRECREPELGLEELLRHRCQLLQQREEYQEELEFCEKLLQTCFSSPTDDSMDR | binds
Lcp1 (protein, UniProt Q61233 1-627) MARGSVSDEEMMELREAFAKVDTDGNGYISCNELNDLFKAACLPLPGYRVREITENLMATGDLDQDGKISFDEFIKVFHGLKSTEVAKTFRKAINKKEGICAIGGTSEQSSVGTQHSYSEEEKYAFVNWINKALENDPDCRHVIPMNPNTDDLFNAVGDGIVLCKMINLSVPDTIDERTINKKKLTPFTIQENLNLALNSASAIGCHVVNIGAEDLKEGKPYLVLGLLWQVIKIGLFADIELSRNEALIALLREGESLEDLMKLSPEELLLRWANYHLENAGCTKITNFSTDIKDSKAYYHLLEQVAPKGDEEGIPAVVIDMSGLREKDDIQRAECMLQQAERLGCRQFVTATDVVRGNPKLNLAFIANLFNKYPALHKPENQDIDWGALEGETREERTFRNWMNSLGVNPRVNHLYSDLSDALVIFQLYEKIKVPVDWNRVNKPPYPKLGGNMKKLENCNYAVDLGKNQAKFSLVGIAGQDLNEGNRTLTLALVWQLMRRYTLNILEDIGGGQKVNDDIIVNWVNTTLKEAQKSSSIASFKDPKISTSLPVLDLIDAIQPGSINYDLLKTENLDDEEKLNNAKYAISMARKIGARVYALPEDLVEVNPKMVMTVFACLMGKGMKRV | binds
Ipo5 (protein, UniProt Q8BKC5 1-1097) MAAAAAEQQQFYLLLGNLLSPDNVVRKQAEETYENIPGRSKITFLLQAIRNTTAAEEARQMAAVLLRRLLSSAFDEVYPALPSDVQTAIKSELLMIIQMETQSSMRKKICDIAAELARNLIDEDGNNQWPEGLKFLFDSVSSQNMGLREAALHIFWNFPGIFGNQQQHYLDVIKRMLVQCMQDQEHPSIRTLSARATAAFILANEHNVALFKHFADLLPGFLQAVNDSCYQNDDSVLKSLVEIADTVPKYLRPHLEATLQLSLKLCGDTNLNNMQRQLALEVIVTLSETAAAMLRKHTSLIAQTIPQMLAMMVDLEEDEDWANADELEDDDFDSNAVAGESALDRMACGLGGKLVLPMIKEHIMQMLQNPDWKYRHAGLMALSAIGEGCHQQMEGILNEIVNFVLLFLQDPHPRVRYAACNAVGQMATDFAPGFQKKFHEKVIAALLQTMEDQGNQRVQAHAAAALINFTEDCPKSLLIPYLDNLVKHLHSIMVLKLQELIQKGTKLVLEQVVTSIASVADTAEEKFVPYYDLFMPSLKHIVENAVQKELRLLRGKTIECISLIGLAVGKEKFMQDASDVMQLLLKTQTDFNDMEDDDPQISYMISAWARMCKILGKEFQQYLPVVMGPLMKTASIKPEVALLDTQDMENMSDDDGWEFVNLGDQQSFGIKTAGLEEKSTACQMLVCYAKELKEGFVEYTEQVVKLMVPLLKFYFHDGVRVAAAESMPLLLECARVRGPEYLTQMWHFMCDALIKAIGTEPDSDVLSEIMHSFAKCIEVMGDGCLNNEHFEELGGILKAKLEEHFKNQELRQVKRQDEDYDEQVEESLQDEDDNDVYILTKVSDILHSIFSSYKEKVLPWFEQLLPLIVNLICPQRPWPDRQWGLCIFDDIVEHCSPASFKYAEYFISPMLQYVCDNSPEVRQAAAYGLGVMAQFGGDNYRPFCTDALPLLVRVIQAPEAKTKENVNATENCISAVGKIMKFKPDCVNVEEVLPHWLSWLPLHEDKEEAVQTFSYLCDLIESNHPIVLGPNNTNLPKIFSIIAEGEMHEAIKHEDPCAKRLANVVRQVQTSGGLWTECIAQLSPEQQAAIQELLNSA | binds
